We go through 23 targets from the supplement of paper PMC11006884.

By UniProt entry, the sequences of proteins in these tests, tags left out. Where a name states a change or a piece, a line headed by the entry shows the natural chain unless it says otherwise.
UniProt O43639, whole entry: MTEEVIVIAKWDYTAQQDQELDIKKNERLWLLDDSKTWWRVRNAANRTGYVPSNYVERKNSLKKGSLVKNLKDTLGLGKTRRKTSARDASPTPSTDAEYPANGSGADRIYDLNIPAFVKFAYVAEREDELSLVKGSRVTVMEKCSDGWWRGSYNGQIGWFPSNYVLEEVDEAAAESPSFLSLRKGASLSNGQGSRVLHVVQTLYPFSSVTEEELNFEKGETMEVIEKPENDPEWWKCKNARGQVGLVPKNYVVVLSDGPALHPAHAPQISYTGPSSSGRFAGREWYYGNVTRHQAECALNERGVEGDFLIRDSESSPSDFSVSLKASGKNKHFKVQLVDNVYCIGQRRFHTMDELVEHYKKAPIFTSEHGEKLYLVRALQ
UniProt O75934: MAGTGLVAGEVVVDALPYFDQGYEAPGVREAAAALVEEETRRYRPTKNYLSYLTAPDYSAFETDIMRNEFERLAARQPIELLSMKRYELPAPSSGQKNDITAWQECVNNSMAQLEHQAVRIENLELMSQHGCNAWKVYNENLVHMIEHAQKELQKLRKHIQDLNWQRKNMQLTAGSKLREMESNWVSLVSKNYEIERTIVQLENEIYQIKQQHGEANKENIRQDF
UniProt O43747: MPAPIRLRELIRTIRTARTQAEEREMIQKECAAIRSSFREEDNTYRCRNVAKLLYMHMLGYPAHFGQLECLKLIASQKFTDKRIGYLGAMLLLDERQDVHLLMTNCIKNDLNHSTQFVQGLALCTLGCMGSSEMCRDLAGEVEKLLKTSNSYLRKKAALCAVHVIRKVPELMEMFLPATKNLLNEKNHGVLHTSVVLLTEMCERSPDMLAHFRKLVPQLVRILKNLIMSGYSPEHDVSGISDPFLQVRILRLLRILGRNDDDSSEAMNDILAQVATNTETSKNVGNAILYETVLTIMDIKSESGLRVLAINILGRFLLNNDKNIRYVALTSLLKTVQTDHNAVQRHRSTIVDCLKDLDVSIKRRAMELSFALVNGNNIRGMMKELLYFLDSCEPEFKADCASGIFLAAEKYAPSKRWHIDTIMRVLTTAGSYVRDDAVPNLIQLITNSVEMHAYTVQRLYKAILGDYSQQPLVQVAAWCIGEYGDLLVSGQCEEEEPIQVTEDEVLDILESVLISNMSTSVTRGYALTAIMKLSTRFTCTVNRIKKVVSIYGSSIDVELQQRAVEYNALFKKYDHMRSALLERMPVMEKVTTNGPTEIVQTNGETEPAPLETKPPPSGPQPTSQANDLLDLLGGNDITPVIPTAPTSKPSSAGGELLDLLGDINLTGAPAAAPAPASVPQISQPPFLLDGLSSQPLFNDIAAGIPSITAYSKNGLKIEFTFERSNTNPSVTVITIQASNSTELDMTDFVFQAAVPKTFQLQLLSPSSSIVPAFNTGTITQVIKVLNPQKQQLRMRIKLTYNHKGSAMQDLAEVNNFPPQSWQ
UniProt O60841: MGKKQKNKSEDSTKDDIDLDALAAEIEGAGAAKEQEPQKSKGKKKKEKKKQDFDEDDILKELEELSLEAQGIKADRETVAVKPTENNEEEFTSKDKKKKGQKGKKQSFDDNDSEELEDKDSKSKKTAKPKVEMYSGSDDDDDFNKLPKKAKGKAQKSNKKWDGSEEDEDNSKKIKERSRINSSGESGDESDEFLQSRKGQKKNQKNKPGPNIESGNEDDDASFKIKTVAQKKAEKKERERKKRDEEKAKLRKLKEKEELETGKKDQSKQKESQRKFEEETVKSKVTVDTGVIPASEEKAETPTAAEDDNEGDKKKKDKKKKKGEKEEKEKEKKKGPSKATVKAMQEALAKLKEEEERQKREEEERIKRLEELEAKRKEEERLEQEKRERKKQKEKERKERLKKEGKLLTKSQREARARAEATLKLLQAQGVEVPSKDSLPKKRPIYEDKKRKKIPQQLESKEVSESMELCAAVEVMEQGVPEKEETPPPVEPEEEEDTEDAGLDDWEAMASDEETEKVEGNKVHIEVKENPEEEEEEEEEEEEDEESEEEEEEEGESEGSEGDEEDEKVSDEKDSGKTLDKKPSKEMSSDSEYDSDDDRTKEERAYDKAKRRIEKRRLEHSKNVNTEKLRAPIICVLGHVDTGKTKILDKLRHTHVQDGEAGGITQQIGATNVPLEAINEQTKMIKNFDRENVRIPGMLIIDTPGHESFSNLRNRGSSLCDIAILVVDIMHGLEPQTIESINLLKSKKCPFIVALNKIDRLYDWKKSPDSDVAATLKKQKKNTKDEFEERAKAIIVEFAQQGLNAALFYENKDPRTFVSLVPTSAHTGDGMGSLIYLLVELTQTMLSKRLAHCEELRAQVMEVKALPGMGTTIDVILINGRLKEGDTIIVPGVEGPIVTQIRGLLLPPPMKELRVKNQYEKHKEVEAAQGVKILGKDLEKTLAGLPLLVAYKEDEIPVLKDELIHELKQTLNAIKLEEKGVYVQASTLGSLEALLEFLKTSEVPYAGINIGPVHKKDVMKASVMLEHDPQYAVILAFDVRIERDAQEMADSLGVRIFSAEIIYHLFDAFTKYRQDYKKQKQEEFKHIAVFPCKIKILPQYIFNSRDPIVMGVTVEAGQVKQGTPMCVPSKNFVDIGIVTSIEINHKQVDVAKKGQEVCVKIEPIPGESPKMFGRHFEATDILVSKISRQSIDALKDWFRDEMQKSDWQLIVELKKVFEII
UniProt O43432, whole entry, looked up: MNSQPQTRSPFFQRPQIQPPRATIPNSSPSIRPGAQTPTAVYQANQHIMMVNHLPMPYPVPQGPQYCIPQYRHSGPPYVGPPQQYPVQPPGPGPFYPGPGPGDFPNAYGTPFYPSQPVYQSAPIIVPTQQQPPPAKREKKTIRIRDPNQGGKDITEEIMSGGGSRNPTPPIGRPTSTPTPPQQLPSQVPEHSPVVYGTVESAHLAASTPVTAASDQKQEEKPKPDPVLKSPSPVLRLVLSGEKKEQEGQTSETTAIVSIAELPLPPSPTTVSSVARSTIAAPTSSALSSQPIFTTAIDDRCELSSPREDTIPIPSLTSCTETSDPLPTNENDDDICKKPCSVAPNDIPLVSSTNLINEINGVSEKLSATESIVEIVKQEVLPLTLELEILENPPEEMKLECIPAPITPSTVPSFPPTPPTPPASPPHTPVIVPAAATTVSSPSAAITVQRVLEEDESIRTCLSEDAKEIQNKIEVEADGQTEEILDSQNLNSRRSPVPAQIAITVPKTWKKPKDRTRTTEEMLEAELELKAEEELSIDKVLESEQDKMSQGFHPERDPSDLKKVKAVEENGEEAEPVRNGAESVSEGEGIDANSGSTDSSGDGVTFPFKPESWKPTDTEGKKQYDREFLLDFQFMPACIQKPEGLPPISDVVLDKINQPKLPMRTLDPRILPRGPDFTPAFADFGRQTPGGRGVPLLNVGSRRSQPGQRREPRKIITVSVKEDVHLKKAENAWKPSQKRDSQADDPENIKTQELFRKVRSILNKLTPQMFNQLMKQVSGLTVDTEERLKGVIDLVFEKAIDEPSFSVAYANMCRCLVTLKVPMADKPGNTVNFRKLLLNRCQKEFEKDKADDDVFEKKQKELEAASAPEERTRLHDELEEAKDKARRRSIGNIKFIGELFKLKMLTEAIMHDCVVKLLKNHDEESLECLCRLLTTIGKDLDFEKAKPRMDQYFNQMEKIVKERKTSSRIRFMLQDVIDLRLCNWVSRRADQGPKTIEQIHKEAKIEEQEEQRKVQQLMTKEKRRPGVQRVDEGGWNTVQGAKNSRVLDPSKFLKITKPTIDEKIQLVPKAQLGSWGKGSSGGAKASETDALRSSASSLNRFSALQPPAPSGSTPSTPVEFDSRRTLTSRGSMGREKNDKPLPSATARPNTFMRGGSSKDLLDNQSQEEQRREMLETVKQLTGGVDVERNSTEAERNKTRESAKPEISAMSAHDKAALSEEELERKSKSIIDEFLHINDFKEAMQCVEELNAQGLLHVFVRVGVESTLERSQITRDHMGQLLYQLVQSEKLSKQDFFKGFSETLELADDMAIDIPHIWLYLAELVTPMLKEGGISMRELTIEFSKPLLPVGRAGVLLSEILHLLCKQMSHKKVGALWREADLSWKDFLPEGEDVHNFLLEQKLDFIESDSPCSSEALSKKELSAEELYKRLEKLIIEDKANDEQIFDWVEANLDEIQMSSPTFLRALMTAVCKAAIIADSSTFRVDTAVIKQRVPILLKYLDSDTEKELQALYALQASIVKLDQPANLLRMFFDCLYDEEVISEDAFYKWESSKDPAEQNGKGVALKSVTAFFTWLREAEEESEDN
UniProt O60610, whole entry, looked up: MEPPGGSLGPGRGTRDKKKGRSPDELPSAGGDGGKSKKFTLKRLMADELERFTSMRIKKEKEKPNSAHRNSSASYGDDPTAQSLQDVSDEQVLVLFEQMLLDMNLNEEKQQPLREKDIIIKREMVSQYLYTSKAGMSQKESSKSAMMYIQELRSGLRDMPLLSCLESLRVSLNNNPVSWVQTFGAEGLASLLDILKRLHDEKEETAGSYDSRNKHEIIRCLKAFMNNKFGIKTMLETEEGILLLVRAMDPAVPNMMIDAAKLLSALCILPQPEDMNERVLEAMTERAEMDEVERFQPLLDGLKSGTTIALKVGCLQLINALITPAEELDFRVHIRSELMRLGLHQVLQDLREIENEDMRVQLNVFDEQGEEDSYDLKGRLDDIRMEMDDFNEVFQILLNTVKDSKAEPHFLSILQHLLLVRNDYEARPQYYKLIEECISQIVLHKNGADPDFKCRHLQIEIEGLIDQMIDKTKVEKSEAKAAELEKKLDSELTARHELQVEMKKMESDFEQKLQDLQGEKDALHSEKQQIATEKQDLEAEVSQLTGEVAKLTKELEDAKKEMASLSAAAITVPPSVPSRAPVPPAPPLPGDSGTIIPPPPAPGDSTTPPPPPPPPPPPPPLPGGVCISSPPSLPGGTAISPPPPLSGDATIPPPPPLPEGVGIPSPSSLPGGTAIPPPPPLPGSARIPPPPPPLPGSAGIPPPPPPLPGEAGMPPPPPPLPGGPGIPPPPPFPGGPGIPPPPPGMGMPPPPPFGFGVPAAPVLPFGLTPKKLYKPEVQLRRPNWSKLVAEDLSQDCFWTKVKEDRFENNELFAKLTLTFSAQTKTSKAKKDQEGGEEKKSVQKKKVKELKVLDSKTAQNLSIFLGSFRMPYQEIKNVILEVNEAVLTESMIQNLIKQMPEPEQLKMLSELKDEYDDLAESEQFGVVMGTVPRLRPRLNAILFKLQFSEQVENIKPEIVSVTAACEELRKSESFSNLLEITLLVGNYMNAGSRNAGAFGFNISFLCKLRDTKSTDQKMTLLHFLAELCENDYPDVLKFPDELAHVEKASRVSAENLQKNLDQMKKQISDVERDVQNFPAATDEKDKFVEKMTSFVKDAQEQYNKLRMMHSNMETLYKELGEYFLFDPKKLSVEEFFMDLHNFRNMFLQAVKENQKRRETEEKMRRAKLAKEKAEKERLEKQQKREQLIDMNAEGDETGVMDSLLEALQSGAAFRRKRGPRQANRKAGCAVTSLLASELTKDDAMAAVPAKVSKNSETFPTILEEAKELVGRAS
UniProt O60264, whole entry, looked up: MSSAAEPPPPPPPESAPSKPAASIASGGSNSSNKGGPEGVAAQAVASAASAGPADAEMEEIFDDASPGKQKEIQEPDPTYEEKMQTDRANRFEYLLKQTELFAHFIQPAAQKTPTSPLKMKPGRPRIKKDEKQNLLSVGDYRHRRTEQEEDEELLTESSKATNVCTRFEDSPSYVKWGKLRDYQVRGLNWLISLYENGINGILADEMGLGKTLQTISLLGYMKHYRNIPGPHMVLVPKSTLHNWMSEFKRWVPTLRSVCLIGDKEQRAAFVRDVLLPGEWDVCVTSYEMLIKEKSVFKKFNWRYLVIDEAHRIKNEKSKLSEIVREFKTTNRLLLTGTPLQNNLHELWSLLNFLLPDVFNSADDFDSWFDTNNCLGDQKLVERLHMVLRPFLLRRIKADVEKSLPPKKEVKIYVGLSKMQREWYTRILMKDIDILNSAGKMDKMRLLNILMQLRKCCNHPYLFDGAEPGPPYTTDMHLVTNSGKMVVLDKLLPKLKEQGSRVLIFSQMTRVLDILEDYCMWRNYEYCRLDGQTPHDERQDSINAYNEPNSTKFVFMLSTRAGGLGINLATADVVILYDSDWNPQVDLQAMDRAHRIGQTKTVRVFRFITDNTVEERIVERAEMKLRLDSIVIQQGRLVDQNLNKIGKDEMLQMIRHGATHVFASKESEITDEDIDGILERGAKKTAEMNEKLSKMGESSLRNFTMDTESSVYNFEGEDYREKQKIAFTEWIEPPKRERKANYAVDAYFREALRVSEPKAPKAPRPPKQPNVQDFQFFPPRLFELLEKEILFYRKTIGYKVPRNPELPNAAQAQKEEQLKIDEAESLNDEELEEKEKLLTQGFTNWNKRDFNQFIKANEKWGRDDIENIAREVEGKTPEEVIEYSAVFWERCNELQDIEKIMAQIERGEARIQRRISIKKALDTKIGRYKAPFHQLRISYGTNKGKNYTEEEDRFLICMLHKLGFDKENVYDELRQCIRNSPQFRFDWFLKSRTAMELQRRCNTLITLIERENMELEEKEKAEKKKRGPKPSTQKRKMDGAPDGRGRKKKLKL

What follows is the remainder of the data, with few or none of the targets with a hit. The data scatter; read single values as rough. This is a selection; strong and weak results do not stand in their true shares.

Compound in the assay: COC(=O)/C=C/c1ccccc1 [methyl cinnamate]
In words: log2 ratio of iodoacetamide-alkyne labeling of the cysteine site, DMSO over compound (competition); higher = stronger covalent engagement of the cysteine by the compound, active = 1 or more. The following applies: 500 µM; treatment time 1 h; system: HEK293T cell lysate. An outline of the steps:
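For each cysteine, the log2 competition ratio is mean control-channel reporter intensity over mean compound-channel reporter intensity. HEK293T lysate (2 mg/mL) was exposed to vehicle or electrophile (500 µM, 1 h, ambient temperature), labelled with iodoacetamide alkyne (1 h), clicked to sCIP-TMT reagents, digested overnight with trypsin at 37 °C, streptavidin-enriched and analysed by Orbitrap Eclipse LC-MS/MS with FAIMS and FragPipe. Cysteines quantified in only one of three replicates, each with duplicate channels, were excluded.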
In the case of NCK2 C297 (UniProt O43639), the “log2 ratio of iodoacetamide-alkyne labeling” value (“log2 ratio” for short) was inactive: 0.132.

Consider UniProt O60232_C70, for which the “log2 ratio” value was inactive: 0.305.

As to IDH3B C233 (UniProt O43837), the “log2 ratio” value was inactive: 0.277.

As to CIAO1 C234 (UniProt O76071), the “log2 ratio” value is inactive: 0.148.

On to PEX1 C1185 (UniProt O43933), for which the “log2 ratio” value is inactive: 0.11.

Turning to UniProt O75934_C132, the “log2 ratio” value is inactive: -0.103.

For the target FLNB C2115 (UniProt O75369), the “log2 ratio” value is inactive: 0.201.

Turning to AP1G1 C353 (UniProt O43747), the “log2 ratio” value is inactive: 0.547.

With MRPS14 C91 (UniProt O60783), the “log2 ratio” value is inactive: 0.0205.

In the case of EIF5B C853 (UniProt O60841), the “log2 ratio” value is inactive: 0.252.

Take UniProt O43432_C638: the “log2 ratio” value was inactive: -0.096.

As to UniProt O60610_C314, the “log2 ratio” value is inactive: -0.582.

Turning to SMARCA5 C165 (UniProt O60264), the “log2 ratio” value was inactive: 0.333.

Consider UniProt O60610_C1227, for which the “log2 ratio” value is inactive: -0.00241.

With KATNA1 C314 (UniProt O75449), the “log2 ratio” value was inactive: -0.0155.

In the case of SNRNP200 C502 (UniProt O75643), the “log2 ratio” value is inactive: 0.0312.

Take ASNA1 C205 (UniProt O43681): the “log2 ratio” value was inactive: -0.0495.

Consider UniProt O60232_C125, for which the “log2 ratio” value is inactive: 0.286.

On to BUB1 C339 (UniProt O43683), for which the “log2 ratio” value was inactive: -0.116.

Turning to UniProt O75153_C153, the “log2 ratio” value is inactive: 0.109.

Turning to UniProt O43929_C16, the “log2 ratio” value is inactive: 0.057.

Regarding NBN C478 (UniProt O60934), the “log2 ratio” value was inactive: 0.378.

Turning to NCOR1 C2322 (UniProt O75376), the “log2 ratio” value is inactive: 0.415.
